This passage reports log2 fold change results from the supplement of paper PMC10849652.

The chains behind the UniProt entries cited, without tags or fusion partners. Where a name states a change or a piece, a line headed by the entry shows the natural chain unless it says otherwise.
UniProt Q16384, whole entry, looked up: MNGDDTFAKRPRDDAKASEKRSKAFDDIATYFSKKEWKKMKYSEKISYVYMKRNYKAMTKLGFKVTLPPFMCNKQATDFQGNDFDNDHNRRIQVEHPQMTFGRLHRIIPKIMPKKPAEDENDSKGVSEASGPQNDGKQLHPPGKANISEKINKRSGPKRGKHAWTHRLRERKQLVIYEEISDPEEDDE
UniProt Q9C0H9: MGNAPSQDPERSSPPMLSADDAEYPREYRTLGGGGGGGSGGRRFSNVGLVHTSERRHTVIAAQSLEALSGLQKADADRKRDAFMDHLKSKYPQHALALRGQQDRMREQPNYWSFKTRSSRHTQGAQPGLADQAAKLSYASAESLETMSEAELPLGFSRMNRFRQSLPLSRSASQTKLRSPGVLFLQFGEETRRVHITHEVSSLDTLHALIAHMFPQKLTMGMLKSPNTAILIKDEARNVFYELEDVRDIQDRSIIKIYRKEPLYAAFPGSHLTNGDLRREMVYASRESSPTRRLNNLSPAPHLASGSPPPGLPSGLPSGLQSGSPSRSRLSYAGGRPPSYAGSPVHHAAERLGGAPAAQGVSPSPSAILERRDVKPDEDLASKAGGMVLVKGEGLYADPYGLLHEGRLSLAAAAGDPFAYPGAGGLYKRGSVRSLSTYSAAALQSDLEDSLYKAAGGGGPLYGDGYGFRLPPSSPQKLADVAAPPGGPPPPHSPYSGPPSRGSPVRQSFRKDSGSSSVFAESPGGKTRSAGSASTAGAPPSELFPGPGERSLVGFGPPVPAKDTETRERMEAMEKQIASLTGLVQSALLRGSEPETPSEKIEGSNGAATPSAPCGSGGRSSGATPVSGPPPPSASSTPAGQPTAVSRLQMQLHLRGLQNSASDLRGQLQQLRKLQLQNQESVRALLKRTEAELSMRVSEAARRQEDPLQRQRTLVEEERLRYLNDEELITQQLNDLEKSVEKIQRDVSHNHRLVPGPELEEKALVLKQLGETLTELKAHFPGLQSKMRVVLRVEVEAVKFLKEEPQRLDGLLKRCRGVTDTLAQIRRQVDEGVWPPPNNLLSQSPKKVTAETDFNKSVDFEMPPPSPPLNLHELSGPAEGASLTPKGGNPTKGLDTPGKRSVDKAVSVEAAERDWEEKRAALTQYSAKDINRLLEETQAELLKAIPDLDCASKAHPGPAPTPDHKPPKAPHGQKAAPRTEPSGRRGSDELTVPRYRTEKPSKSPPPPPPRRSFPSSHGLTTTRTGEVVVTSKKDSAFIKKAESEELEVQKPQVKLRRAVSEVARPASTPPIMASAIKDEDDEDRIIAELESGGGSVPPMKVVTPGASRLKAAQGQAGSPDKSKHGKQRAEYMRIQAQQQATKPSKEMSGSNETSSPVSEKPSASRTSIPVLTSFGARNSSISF
UniProt Q15532, whole entry, looked up: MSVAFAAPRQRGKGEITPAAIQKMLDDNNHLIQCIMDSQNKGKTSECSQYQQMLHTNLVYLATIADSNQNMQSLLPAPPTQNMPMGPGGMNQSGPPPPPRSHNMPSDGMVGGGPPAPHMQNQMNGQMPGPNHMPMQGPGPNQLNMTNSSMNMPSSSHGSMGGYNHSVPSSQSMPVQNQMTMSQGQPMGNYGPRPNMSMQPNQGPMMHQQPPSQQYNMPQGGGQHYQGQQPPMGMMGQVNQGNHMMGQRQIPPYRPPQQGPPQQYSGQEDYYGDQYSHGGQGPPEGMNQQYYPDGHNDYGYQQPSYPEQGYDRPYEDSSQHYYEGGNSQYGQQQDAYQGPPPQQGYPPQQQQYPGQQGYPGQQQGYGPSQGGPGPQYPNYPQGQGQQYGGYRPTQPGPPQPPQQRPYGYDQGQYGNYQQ
UniProt Q9H8P0: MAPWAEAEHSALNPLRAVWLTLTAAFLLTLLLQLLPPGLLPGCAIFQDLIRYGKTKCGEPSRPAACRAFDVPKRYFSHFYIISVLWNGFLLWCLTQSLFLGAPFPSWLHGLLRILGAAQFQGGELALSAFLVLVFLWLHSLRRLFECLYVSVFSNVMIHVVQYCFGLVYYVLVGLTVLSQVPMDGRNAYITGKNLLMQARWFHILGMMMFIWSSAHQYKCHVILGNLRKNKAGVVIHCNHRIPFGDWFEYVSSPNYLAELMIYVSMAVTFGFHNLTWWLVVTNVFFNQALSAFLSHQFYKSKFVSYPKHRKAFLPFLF
UniProt Q9BWG4: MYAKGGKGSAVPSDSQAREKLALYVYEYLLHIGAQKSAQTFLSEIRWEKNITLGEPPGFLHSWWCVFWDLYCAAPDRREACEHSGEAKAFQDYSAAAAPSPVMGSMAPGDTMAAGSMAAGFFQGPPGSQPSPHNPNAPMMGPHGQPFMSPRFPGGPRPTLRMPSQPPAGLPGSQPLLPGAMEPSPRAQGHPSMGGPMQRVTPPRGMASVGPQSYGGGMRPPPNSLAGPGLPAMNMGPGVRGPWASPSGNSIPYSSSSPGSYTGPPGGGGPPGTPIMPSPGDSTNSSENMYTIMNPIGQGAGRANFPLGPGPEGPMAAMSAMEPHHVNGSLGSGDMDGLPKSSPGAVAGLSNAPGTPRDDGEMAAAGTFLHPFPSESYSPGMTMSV
UniProt Q9BYN0: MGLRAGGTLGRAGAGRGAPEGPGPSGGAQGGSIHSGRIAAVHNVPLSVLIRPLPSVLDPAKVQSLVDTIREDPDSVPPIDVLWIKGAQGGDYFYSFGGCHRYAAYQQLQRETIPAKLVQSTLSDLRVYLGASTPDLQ
UniProt Q9NUQ6: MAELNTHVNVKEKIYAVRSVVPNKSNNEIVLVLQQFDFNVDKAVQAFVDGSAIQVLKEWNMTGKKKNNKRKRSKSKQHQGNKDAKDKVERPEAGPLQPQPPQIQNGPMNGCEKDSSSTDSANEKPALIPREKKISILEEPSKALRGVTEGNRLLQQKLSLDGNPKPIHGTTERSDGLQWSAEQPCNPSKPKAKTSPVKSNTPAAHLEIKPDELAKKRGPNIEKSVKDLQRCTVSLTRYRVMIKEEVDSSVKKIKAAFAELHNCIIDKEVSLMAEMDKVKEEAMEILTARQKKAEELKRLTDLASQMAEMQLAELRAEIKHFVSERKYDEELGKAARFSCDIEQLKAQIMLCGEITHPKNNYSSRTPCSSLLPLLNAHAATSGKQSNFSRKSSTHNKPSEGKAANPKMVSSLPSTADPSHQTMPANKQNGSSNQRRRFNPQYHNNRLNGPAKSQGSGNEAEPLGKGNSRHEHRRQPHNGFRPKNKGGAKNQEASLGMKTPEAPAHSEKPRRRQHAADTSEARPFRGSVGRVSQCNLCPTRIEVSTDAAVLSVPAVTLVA
UniProt Q7Z699: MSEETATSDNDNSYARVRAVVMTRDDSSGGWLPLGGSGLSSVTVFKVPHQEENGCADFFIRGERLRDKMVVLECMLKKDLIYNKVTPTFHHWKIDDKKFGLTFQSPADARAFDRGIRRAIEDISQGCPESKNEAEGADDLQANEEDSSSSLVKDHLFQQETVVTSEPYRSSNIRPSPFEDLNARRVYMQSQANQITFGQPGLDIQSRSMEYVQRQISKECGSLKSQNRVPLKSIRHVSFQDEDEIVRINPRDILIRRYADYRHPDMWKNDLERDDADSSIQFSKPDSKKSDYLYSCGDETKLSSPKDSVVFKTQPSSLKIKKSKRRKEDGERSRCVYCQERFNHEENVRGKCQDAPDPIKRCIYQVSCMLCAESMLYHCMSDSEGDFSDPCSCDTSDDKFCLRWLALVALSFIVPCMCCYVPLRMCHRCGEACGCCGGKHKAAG
UniProt P52630: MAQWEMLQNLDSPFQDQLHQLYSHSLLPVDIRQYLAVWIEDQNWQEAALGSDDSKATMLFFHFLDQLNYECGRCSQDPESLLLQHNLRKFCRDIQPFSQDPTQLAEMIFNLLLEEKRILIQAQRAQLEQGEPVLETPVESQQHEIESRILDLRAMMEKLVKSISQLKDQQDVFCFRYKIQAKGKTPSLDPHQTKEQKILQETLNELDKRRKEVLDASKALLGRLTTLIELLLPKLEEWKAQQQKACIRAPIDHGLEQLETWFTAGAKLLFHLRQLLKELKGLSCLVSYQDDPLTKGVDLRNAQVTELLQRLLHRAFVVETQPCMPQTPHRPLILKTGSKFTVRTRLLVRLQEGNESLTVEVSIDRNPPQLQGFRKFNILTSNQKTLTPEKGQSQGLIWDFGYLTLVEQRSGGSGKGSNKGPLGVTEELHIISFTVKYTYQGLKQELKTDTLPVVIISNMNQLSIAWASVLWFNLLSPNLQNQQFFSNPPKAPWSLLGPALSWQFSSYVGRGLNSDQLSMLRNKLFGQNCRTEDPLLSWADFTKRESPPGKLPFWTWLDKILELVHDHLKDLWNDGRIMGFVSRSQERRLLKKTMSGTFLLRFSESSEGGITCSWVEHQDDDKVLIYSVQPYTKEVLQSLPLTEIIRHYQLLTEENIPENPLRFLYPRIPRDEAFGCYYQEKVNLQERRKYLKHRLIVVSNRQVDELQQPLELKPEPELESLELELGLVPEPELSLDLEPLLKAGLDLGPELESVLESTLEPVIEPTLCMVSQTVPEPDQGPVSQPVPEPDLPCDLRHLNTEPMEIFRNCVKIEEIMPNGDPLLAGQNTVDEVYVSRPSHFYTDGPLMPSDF
UniProt P61647: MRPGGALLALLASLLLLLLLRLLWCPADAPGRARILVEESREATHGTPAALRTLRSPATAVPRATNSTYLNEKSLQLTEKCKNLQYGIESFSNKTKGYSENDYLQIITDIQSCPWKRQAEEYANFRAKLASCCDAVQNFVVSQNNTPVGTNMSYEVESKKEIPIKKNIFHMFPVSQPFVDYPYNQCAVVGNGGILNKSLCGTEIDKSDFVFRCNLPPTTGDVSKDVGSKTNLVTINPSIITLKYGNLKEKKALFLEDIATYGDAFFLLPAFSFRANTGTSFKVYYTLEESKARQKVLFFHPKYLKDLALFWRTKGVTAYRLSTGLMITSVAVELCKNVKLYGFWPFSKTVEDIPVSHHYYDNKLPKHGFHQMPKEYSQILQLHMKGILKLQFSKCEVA
UniProt P49842: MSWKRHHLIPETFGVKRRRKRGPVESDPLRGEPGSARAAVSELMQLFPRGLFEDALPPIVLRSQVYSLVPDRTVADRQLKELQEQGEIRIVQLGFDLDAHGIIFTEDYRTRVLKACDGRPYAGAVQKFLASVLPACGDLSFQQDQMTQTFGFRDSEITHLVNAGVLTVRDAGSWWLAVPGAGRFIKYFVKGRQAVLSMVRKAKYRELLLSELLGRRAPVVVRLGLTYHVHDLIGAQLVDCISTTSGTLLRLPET
UniProt Q9P246, whole entry, looked up: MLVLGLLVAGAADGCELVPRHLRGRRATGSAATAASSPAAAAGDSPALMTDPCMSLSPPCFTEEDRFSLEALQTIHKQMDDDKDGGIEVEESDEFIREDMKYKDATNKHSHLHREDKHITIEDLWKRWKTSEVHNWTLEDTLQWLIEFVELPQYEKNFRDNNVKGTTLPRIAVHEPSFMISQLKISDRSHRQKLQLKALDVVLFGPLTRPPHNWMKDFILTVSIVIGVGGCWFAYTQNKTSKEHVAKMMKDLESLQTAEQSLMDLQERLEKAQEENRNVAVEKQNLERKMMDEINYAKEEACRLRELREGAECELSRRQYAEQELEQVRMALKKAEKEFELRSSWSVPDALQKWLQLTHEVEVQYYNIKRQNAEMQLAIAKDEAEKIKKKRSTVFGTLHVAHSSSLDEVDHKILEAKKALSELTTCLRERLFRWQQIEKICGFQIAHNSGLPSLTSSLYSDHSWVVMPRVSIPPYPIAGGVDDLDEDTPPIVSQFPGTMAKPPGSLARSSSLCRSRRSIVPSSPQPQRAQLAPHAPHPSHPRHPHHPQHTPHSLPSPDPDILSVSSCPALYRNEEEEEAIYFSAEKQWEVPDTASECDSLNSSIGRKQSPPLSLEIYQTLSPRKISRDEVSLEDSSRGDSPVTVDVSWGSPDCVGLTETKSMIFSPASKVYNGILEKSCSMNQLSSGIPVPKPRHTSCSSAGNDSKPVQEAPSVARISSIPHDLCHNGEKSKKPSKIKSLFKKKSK
UniProt Q7Z698: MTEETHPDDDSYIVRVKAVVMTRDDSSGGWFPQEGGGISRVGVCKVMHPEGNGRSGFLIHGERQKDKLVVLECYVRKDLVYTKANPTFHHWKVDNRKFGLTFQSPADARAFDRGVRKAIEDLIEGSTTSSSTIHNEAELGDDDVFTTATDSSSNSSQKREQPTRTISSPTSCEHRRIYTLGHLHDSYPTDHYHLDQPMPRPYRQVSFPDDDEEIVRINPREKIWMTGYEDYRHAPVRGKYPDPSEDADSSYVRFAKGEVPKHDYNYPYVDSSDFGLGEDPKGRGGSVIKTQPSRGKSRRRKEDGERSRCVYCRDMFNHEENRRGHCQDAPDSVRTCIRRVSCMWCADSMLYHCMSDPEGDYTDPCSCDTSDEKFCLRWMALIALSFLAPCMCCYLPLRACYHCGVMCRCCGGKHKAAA

Some of the results follow.

Compound in the assay: C1=CC2=C(C=CC(=C2)/C=C\3/C(=O)NC(=NCC4=CC=CS4)S3)N=C1
Put plainly: log2 fold change, soluble protein after heating vs DMSO (PISA); higher = thermal stabilisation; K562 cells, 10 uM, 30 min; active = over 0.2 and 3.5 SD of the protein, either way, in both replicates (recomputed). Summed up:
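Soluble protein was quantified by TMTpro 16plex LC-MS/MS after channel sums were equalised. It was obtained as the supernatant after 21,000xg for 90 min from pooled aliquots of K562 cells (2×10^6 cells/mL, 10 μM compound, 30 min) heated for 3 min across 48°C-58°C and extracted in PBS with 0.5% NP-40 at 4°C. Thermal stability values are relative to control samples and come from duplicates. They are given as log2 fold changes.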
SSX1 (UniProt Q16384): the log2 fold change is inactive: -0.084.

Take SRCIN1 (UniProt Q9C0H9): the log2 fold change was inactive: -0.027.

Regarding SS18 (UniProt Q15532), the log2 fold change was inactive: 0.168.

With SRD5A3 (UniProt Q9H8P0), the log2 fold change was inactive: -0.031.

For the target SSBP4 (UniProt Q9BWG4), the log2 fold change is inactive: -0.054.

On to SRXN1 (UniProt Q9BYN0), for which the log2 fold change was inactive: 0.036.

In the case of SPATS2L isoform 3 (UniProt Q9NUQ6), the log2 fold change is inactive: -0.05.

As for SPRED1 (UniProt Q7Z699), the log2 fold change was inactive: 0.041.

For the target STAT2 (UniProt P52630), the log2 fold change is inactive: -0.111.

Consider ST8SIA6 (UniProt P61647), for which the log2 fold change is inactive: 0.413.

As to SPATA33 isoform 2 (UniProt Q96N06), the log2 fold change was inactive: -0.025.

STK19 (UniProt P49842): the log2 fold change is inactive: 0.278.

Regarding STIM2 isoform 2 (UniProt Q9P246), the log2 fold change was inactive: 0.126.

On to SPATA31E1 (UniProt Q6ZUB1), for which the log2 fold change is inactive: 0.394.

Turning to SPRED2 (UniProt Q7Z698), the log2 fold change was inactive: 0.026.
